Measurements reported in PubChem BioAssay AID602196 (INSERM, 2012).
Aim: 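Genes whose knock-down alters cisplatin killing of lung cancer cells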. Cells: human A549 lung cancer cells. Knock-down reagent: siRNA pair against human genes. Duration: 48 h transfection before cisplatin; time from cisplatin to read-out not stated. Conditions: cisplatin at a dose killing half of control-siRNA cells; exact dose and duration not given. Read-out: 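Cisplatin cell death as a shift from the 50% death seen with control siRNA; siRNAs toxic or growth-blocking alone scored 0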. Scale: two-siRNA summed score (-2 to +2): higher = both siRNAs protect from cisplatin killing; -2 means both sensitise; mean protection from cisplatin (shift in death) and protection from cisplatin (shift in death), siRNA C: higher = protection from cisplatin killing. Active means: 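Each siRNA scores 0 if harmful alone by LDH or WST-1, otherwise +1 if it reduces and -1 if it increases cisplatin killing; a gene is active when both siRNAs agree (sum +2 or -2)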. Calls: active = both siRNAs shift cisplatin killing the same way; inactive = no consistent shift, or siRNA harmful alone.
Shown is a random part of about 23,000 reagents tested. Over the whole deposit, 455 (2%) got an active call. 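Active includes both protection and sensitisation; some change values fall well beyond the stated -50 to +50 range.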 Further read-outs or replicates are left out here. No sequences are given here. Not given: the amount of reagent.

no.	gene symbol	two-siRNA summed score (-2 to +2)	mean protection from cisplatin (shift in death) (%)	protection from cisplatin (shift in death), siRNA C (%)	outcome
1	LOC387921	0	9.1	12.6	inactive
2	TRIM56	0	7.6	-1.6	inactive
3	MTHFR	-1	-4.6	3.5	inactive
4	SHANK2-AS3	1	13	23.1	inactive
5	UBE2J2	0	1.7	3.9	inactive
6	LOC388148	0	4.7	7.2	inactive
7	CLBA1	0	-4.7	-0.8	inactive
8	MC3R	-1	-9.6	-17.5	inactive
9	KBTBD6	0	3.9	-2.6	inactive
10	CFAP91	0	5.2	0.7	inactive
11	RNF19A	0	-3.8	0.9	inactive
12	ETAA1	0	14	21.2	inactive
13	MADCAM1	0	3.3	-3.8	inactive
14	PARP1	1	14.5	25.1	inactive
15	CEBPA	0	14.8	9.6	inactive
16	EEF2K	0	7.7	7.8	inactive
17	LOC147975	0	12.7	11.9	inactive
18	ZNF24	0	-3.2	-13.6	inactive
19	LARGE1	-1	-9.9	11.7	inactive
20	CST9	1	12.3	6.9	inactive
21	CARD11	0	3.1	-0.4	inactive
22	C9orf152	0	3.5	3.6	inactive
23	DZIP1	0	-1.5	-1.1	inactive
24	HHLA2	0	10.5	8.9	inactive
25	MAPK12	0	12.2	13.8	inactive
26	PPP4R2	0	-4.5	-5.2	inactive
27	LOC391209	0	9.8	6.4	inactive
28	PTGIR	1	9.3	28.7	inactive
29	HAPLN1	1	20	37	inactive
30	LOC440824	0	14.3	28.6	inactive
31	PSKH1	0	6.4	11.3	inactive
32	LOC439965	0	-1.4	-2.1	inactive
33	TOPORS	-2	-23.3	-20.1	active
34	LOC144766	0	7.4	7.8	inactive
35	MDFIC	0	1.3	-1.9	inactive
36	PCDHB16	0	-9.4	-1.3	inactive
37	RPS12	0	20.9	17.5	inactive
38	GET1	0	0.3	-5.4	inactive
39	TNS1	0	-0.1	9.8	inactive
40	CHD3	1	16.1	24.2	inactive
41	ZNF684	1	6.4	-10.7	inactive
42	WDR77	0	-0.2	1	inactive
43	FGB	0	2.8	0.9	inactive
44	MARCHF8	0	8.1	14.2	inactive
45	MBNL2	0	-0.6	3.5	inactive
46	FNBP1L	1	5.2	-9.4	inactive
47	PLEC	0	-1.2	-4.3	inactive
48	FAM221A	1	14.6	26.2	inactive
49	DBF4B	0	5.1	9.5	inactive
50	NDC80	0	-14.4	-2.1	inactive
51	PLEKHG5	1	5	19.4	inactive
52	EXOG	-1	-2.6	9.6	inactive
53	ANKRD34B	0	2.5	8.7	inactive
54	GJD3	0	0.2	-1.3	inactive
55	SLC14A1	1	15.7	23.1	inactive
56	LOC441137	2	15.8	19.5	active
57	LOC442225	0	6.4	4.4	inactive
58	F10	0	17.5	27.2	inactive
59	CHCHD4	0	2.2	0.1	inactive
60	SHISA4	0	9.8	18.1	inactive
61	C8orf34	1	8.8	12.8	inactive
62	HEXD	0	24.5	25.3	inactive
63	PAX4	1	10.1	6.2	inactive
64	BTBD9	0	-2.3	2.7	inactive
65	TNIP3	0	7.3	6.5	inactive
66	LOC400846	0	6.5	8.6	inactive
67	PHLPP1	1	14.9	12.3	inactive
68	LOC203547	0	-1.2	3.6	inactive
69	PRAMEF7	0	27.9	22.2	inactive
70	DAGLA	2	13.9	12.3	active
71	DKFZp761P0423	1	15.2	20.2	inactive
72	BDH1	0	8	17.9	inactive
73	IMMP2L	0	2.5	-0.6	inactive

Laid out differently: entries from further up
{"gene symbol":"SLC14A1","two-siRNA summed score (-2 to +2)":1,"mean protection from cisplatin (shift in death) (%)":15.7,"protection from cisplatin (shift in death), siRNA C (%)":23.1,"outcome":"inactive"}
{"gene symbol":"LOC441137","two-siRNA summed score (-2 to +2)":2,"mean protection from cisplatin (shift in death) (%)":15.8,"protection from cisplatin (shift in death), siRNA C (%)":19.5,"outcome":"active"}
{"gene symbol":"LOC442225","two-siRNA summed score (-2 to +2)":0,"mean protection from cisplatin (shift in death) (%)":6.4,"protection from cisplatin (shift in death), siRNA C (%)":4.4,"outcome":"inactive"}
{"gene symbol":"F10","two-siRNA summed score (-2 to +2)":0,"mean protection from cisplatin (shift in death) (%)":17.5,"protection from cisplatin (shift in death), siRNA C (%)":27.2,"outcome":"inactive"}
{"gene symbol":"CHCHD4","two-siRNA summed score (-2 to +2)":0,"mean protection from cisplatin (shift in death) (%)":2.2,"protection from cisplatin (shift in death), siRNA C (%)":0.1,"outcome":"inactive"}
{"gene symbol":"SHISA4","two-siRNA summed score (-2 to +2)":0,"mean protection from cisplatin (shift in death) (%)":9.8,"protection from cisplatin (shift in death), siRNA C (%)":18.1,"outcome":"inactive"}
{"gene symbol":"C8orf34","two-siRNA summed score (-2 to +2)":1,"mean protection from cisplatin (shift in death) (%)":8.8,"protection from cisplatin (shift in death), siRNA C (%)":12.8,"outcome":"inactive"}
{"gene symbol":"HEXD","two-siRNA summed score (-2 to +2)":0,"mean protection from cisplatin (shift in death) (%)":24.5,"protection from cisplatin (shift in death), siRNA C (%)":25.3,"outcome":"inactive"}
{"gene symbol":"PAX4","two-siRNA summed score (-2 to +2)":1,"mean protection from cisplatin (shift in death) (%)":10.1,"protection from cisplatin (shift in death), siRNA C (%)":6.2,"outcome":"inactive"}
{"gene symbol":"BTBD9","two-siRNA summed score (-2 to +2)":0,"mean protection from cisplatin (shift in death) (%)":-2.3,"protection from cisplatin (shift in death), siRNA C (%)":2.7,"outcome":"inactive"}
{"gene symbol":"TNIP3","two-siRNA summed score (-2 to +2)":0,"mean protection from cisplatin (shift in death) (%)":7.3,"protection from cisplatin (shift in death), siRNA C (%)":6.5,"outcome":"inactive"}
